The text below walks through data of publication PMC7819943, “Rice protein-binding microarrays: a tool to detect cis-acting elements near promoter regions in rice”.

The chains behind the UniProt entries cited, without tags or fusion partners.
UniProt Q0JBA9, entry or part of it: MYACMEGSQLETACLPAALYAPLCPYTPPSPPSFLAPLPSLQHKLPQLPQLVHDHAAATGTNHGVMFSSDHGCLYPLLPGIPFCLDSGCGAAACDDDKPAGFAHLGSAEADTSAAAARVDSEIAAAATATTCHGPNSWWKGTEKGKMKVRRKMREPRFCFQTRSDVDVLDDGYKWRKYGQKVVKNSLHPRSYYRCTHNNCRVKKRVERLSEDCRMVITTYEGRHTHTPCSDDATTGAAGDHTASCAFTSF

Some of the results follow.

This experiment has as its target OsWRKY34 (Oryza sativa, UniProt Q0JBA9 1-250). Briefly: protein-binding microarray (RPBM); PBS, 2% BSA, 51.3 ng/ul salmon testes DNA, 50 uM zinc acetate, 200 nM TF, 25 C, 1 h; high values mean tight binding. Conditions: protein: recombinant; tags: N-terminal polyhistidine and DsRed monomer fusion (pET32a); label: CyDye5-dUTP incorporated in the synthesized complementary strand; 3' TTTTT single-stranded linker to array surface; dsDNA, one strand shown. In a few lines: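 Ni–NTA purification followed expression in E. coli BL21-CodonPlus of transcription factors fused N-terminally to a polyhistidine tag and DsRed. At 200 nM in PBS with 2% BSA, salmon testes DNA and 50 µM zinc acetate, the protein was incubated for 1 h at 25 °C with a custom Agilent array that had been primer-extended with Cy5-dUTP and blocked with 2% BSA. After washing, the array was read on an Axon 4000B scanner. The binding signal is per-feature fluorescence intensity in arbitrary units.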
“CTCCTTCCATTTGTACCCACGTCTGCTGTCCATTGACCGGCGGAGTCACCTAGTGCAG”: the binding signal was 9610 fluorescence intensity (a.u.).

“CTTCCCGCATTCCGTTCCTGCGCGTGGACCCCACCTGCAGCGGAGTCACCTAGTGCAG”: the binding signal is 10000 fluorescence intensity (a.u.).

For the sequence “GGTGGGATATCGGGCGCTTGGGCTTCAACTCACACACATGCGGAGTCACCTAGTGCAG”, the binding signal is 10600 fluorescence intensity (a.u.).

As to “GGGGCTGCTTGGGCTTGTGTTGTTTTTTTGGCAGATGCATCGGAGTCACCTAGTGCAG”, the binding signal was 19100 fluorescence intensity (a.u.).

On to “AGAAGATCCAGTCTCAGTCTATCTCTCTCATATTCCTTCGCGGAGTCACCTAGTGCAG”, for which the binding signal was 8560 fluorescence intensity (a.u.).

On to “GGGACATACGTTTCTGATGTGTGGGTCCATGAGGTTGGTCCGGAGTCACCTAGTGCAG”, for which the binding signal is 8210 fluorescence intensity (a.u.).

For the sequence “CTCGTTGGTGATGACAGTGACGGAATCCCCATGTTGACCTCGGAGTCACCTAGTGCAG”, the binding signal was 8210 fluorescence intensity (a.u.).

On to “TCCTAGCTGATCGACTCCATCCCACTCCTGTTTTTACACACGGAGTCACCTAGTGCAG”, for which the binding signal is 11000 fluorescence intensity (a.u.).

Take “TTGTTTTTCTTGTTTTGCTTTTTTCTCAATTGGATAGTCCCGGAGTCACCTAGTGCAG”: the binding signal was 12400 fluorescence intensity (a.u.).

Consider “AACGTAATTTGGCTCTCGCGTTCCTAACATGCTCTCTCGACGGAGTCACCTAGTGCAG”, for which the binding signal was 10600 fluorescence intensity (a.u.).

“GTGGTTTCCGTGTCCAATATTTGACCGTCCATCTTATTTACGGAGTCACCTAGTGCAG”: the binding signal is 8090 fluorescence intensity (a.u.).

As to “TATTAAATCATTTAATTTTAGCTATTGTTTTTTATTTATTCGGAGTCACCTAGTGCAG”, the binding signal was 9250 fluorescence intensity (a.u.).

With “TCCGGCCCATAAGTGCTGCTTCTGCTTCTTCTTCAGCAACCGGAGTCACCTAGTGCAG”, the binding signal was 11100 fluorescence intensity (a.u.).

For “ATTCTGTTGTTTATCCATCTTCCTTGACAGTTCTTGCATTCGGAGTCACCTAGTGCAG”, the binding signal is 11000 fluorescence intensity (a.u.).

Turning to “GGGCAATGTTCTTGTGTTGTTTATCTTGGAATCAAAAGCTCGGAGTCACCTAGTGCAG”, the binding signal is 10900 fluorescence intensity (a.u.).

With “TCGGCTCGGCTCGGCTACTCCTCTCTCTCTCTTTCTCTCCCGGAGTCACCTAGTGCAG”, the binding signal is 11500 fluorescence intensity (a.u.).

Take “ACTCATCTGACCTCCCTCCTTTCATATGTACTGTTTGTTACGGAGTCACCTAGTGCAG”: the binding signal is 8960 fluorescence intensity (a.u.).

With “TTCCATGCTTTTTTCTTGTCCACTCTGCTATCTGGACTCTCGGAGTCACCTAGTGCAG”, the binding signal was 10700 fluorescence intensity (a.u.).

As to “CTTGTTCCATCCCGTTATAGGTCGTAGTCGCCCATGCATTCGGAGTCACCTAGTGCAG”, the binding signal is 8170 fluorescence intensity (a.u.).

Regarding “ATTATTTCACACTTTAGCTACTCCCAATATAATTATTTTCCGGAGTCACCTAGTGCAG”, the binding signal is 9310 fluorescence intensity (a.u.).

As to “AATTTTCTCTGTTAATTTTTTGGGTAAAATTCTTCCGTTCCGGAGTCACCTAGTGCAG”, the binding signal is 8720 fluorescence intensity (a.u.).

On to “GACAGCCACTGACGTCACCCCATGTCCTTCTTCTCGGCTACGGAGTCACCTAGTGCAG”, for which the binding signal was 11400 fluorescence intensity (a.u.).

As to “GGGGCCCACATCACTCTCTCACTTACATGTGGGGCCCACGCGGAGTCACCTAGTGCAG”, the binding signal is 8400 fluorescence intensity (a.u.).

Regarding “CAGGCGACCACCTCCAGCTCCGCGCCATCTCCATGTCATCCGGAGTCACCTAGTGCAG”, the binding signal is 10800 fluorescence intensity (a.u.).

Regarding “CATCCGTTGAAGGTGGGTTTTTGTGCTGTTAAATTCCGGACGGAGTCACCTAGTGCAG”, the binding signal was 8020 fluorescence intensity (a.u.).

With “AGGAAAATCTTAGCGTTCTCATTTACCATTCAATTTTTTTCGGAGTCACCTAGTGCAG”, the binding signal was 11300 fluorescence intensity (a.u.).

Regarding “ATCGGGTTGTTGTTGTGTCATTCTCTGCCAAATGGGCCAGCGGAGTCACCTAGTGCAG”, the binding signal is 13100 fluorescence intensity (a.u.).

Turning to “GGGGAGGAAAGCATGGTGAAAATTTGCTAAATATTGTGAACGGAGTCACCTAGTGCAG”, the binding signal was 10800 fluorescence intensity (a.u.).

For the sequence “CCTAATTTTTTACCCGATCGACTTCGCCATGGAAAATTTTCGGAGTCACCTAGTGCAG”, the binding signal is 10700 fluorescence intensity (a.u.).

Turning to “CTACAATTTTGTCTTGGTATATTGCTGCTGGTATTCTTTTCGGAGTCACCTAGTGCAG”, the binding signal was 11400 fluorescence intensity (a.u.).

For “CCACACTTCCTTTTGATTTTTTCTTTTTTTTCATCCTACCCGGAGTCACCTAGTGCAG”, the binding signal was 12200 fluorescence intensity (a.u.).

For the sequence “TCGGGCGTCCGATCTGGGGTGGGAAAATCGACCACCCACGCGGAGTCACCTAGTGCAG”, the binding signal is 8140 fluorescence intensity (a.u.).

With “CCATACACCCGCCGCCGCCGCTATCTCACACGTCTCGCCTCGGAGTCACCTAGTGCAG”, the binding signal was 11400 fluorescence intensity (a.u.).

On to “AACTGCATATTGTTGTTGTCATCTTTGTTCAAGGTGCAGGCGGAGTCACCTAGTGCAG”, for which the binding signal is 8730 fluorescence intensity (a.u.).

Consider “AACCTTACAGCCACAGCGAGTCCCTAGCAACAGCATCGAACGGAGTCACCTAGTGCAG”, for which the binding signal was 8100 fluorescence intensity (a.u.).

Take “CTCTCTCTCTCTCGTTTTCCTCTCCTCTCTCGGTCCTCTCCGGAGTCACCTAGTGCAG”: the binding signal is 8280 fluorescence intensity (a.u.).

As for “CACTCTTATTGATATACTCTTTTGTACAGAGACTAATAGTCGGAGTCACCTAGTGCAG”, the binding signal was 8110 fluorescence intensity (a.u.).

In the case of “ACTAATATGCCCTTGGAAATCGACGGTTTGGATTATTTCTCGGAGTCACCTAGTGCAG”, the binding signal is 8520 fluorescence intensity (a.u.).

Turning to “GGGGTGAAGATTTCTGGTATTGAGGATTATGTTGGCTGGTCGGAGTCACCTAGTGCAG”, the binding signal was 8360 fluorescence intensity (a.u.).

As for “GGATGACACGTTCTCTATTCGTTCCAAACCTTATGAACCGCGGAGTCACCTAGTGCAG”, the binding signal was 9220 fluorescence intensity (a.u.).

In the case of “AAGTAATAAGGAACTTGCGTCAATCGATTTGTTTAGTTTCCGGAGTCACCTAGTGCAG”, the binding signal is 9520 fluorescence intensity (a.u.).

“AATTATATTTTTGTTCACAATCAGTACTATGGTTTTTTTTCGGAGTCACCTAGTGCAG”: the binding signal is 8500 fluorescence intensity (a.u.).
